PubChem BioAssay AID504774, Drosophila RNAi Screening Center, 2011

Aim: 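Fly genes whose loss alters survival after alkylation damage to DNA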 (primary screen)
System: Drosophila Kc167 cells
Knock-down reagent: long dsRNA against Drosophila genes, about 0.25 µg dsRNA per well
Duration: about 6 days: 3 days knock-down, then 3 days with or without MMS
Challenge: methyl methanesulphonate 0.004% (w/v) for 3 days after knock-down
Read-out: 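ATP-dependent luminescence as a measure of live cells in MMS-exposed wells, quantile normalised within each plate, with replicate values also given as a mean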
Scale: mean viability with MMS: higher = more surviving cells after MMS
In all, the deposit lists about 23,000 reagents; this is an unselected part of those with a known target gene and a result. 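Values are quantile-normalised luminescence on an arbitrary scale; higher means more cells surviving MMS.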 The numbers tell different reagents against one gene apart. Not all columns of the deposit are shown. Reagent sequences are not shown.

mean viability with MMS, by gene knocked down and reagent
Rb97D (Ribonuclear protein at 97D): #1 4.20e6
CG10194: #1 3.69e6
CG13775: #1 3.59e6
amos (absent MD neurons and olfactory sensilla): #1 3.56e6
Fdh (Formaldehyde dehydrogenase): #1 3.59e6
Pex2 (Peroxin 2): #1 3.59e6
CG31664: #1 3.57e6
CG32679: #1 3.52e6
Wnt6 (Wnt oncogene analog 6): #1 3.65e6
Bfc (Booster for Crq): #1 3.60e6
alphaKap4 (alpha Karyopherin-4): #1 3.41e6
CG13711: #1 3.58e6
beat-IIIa (beaten path IIIa): #1 3.57e6; #2 3.60e6; #3 3.46e6
Oatp33Ea (Organic anion transporting polypeptide 33Ea): #1 3.32e6
Rab23: #1 3.63e6
Saf-B (Scaffold attachment factor B): #1 3.51e6
RabX5: #1 3.62e6
ND-42 (NADH dehydrogenase (ubiquinone) 42 kDa subunit): #1 3.51e6
PNKP (Polynucleotide kinase 3'-phosphatase): #1 3.37e6
Ktl (Kctd12-like): #1 3.62e6
vri (vrille): #1 2.74e6; #2 3.61e6
Tasp1 (Taspase 1): #1 3.53e6
Spn42Dc (Serpin 42Dc): #1 3.34e6
soti (scotti): #1 3.46e6
Oatp26F (Organic anion transporting polypeptide 26F): #1 3.53e6; #2 3.54e6; #3 3.60e6
Or65a (Odorant receptor 65a): #1 3.52e6
CG4459: #1 3.60e6
CHKov1 (CHK domain ov1): #1 3.39e6; #2 3.36e6; #3 3.34e6; #4 2.34e6
Dd (Dullard): #1 3.55e6
ZnT33D (Zinc transporter 33D): #1 3.72e6
CG3511: #1 3.47e6
RtcB (RtcB RNA ligase): #1 3.57e6
cpx (complexin): #1 3.46e6
CG10510: #1 3.36e6
CG32720: #1 3.53e6
CG33158: #1 1.89e6; #2 3.51e6; #3 3.54e6
CG12998: #1 3.47e6
CG11608: #1 3.50e6
CG13004: #1 3.66e6
LPCAT (Lysophosphatidylcholine acyltransferase): #1 3.95e6; #2 3.58e6
Acp53Ea (Accessory gland protein 53Ea): #1 3.64e6

6 entries already listed, sorted by “mean viability with MMS”, high to low:
gene knocked down	reagent no.	mean viability with MMS
CG33158	3	3.54e6
CG32720	1	3.53e6
CG33158	2	3.51e6
cpx (complexin)	1	3.46e6
CG10510	1	3.36e6
CG33158	1	1.89e6

Continued.
mean viability with MMS, by gene knocked down and reagent
hts (hu li tai shao): #1 3.45e6
PIG-H (Phosphatidylinositol glycan anchor biosynthesis class H): #1 3.50e6
Ntl (Neurotransmitter transporter-like): #1 1.99e6
Sac1 (Sac1 phosphatase): #1 3.68e6
CG42562: #1 3.58e6
AIF (Apoptosis inducing factor): #1 3.47e6
Cyp28d1 (Cytochrome P450 28d1): #1 3.69e6; #2 3.66e6
betaTub97EF (beta-Tubulin at 97EF): #1 3.52e6; #2 3.62e6; #3 3.61e6
CG15343: #1 3.54e6
CG5023: #1 3.83e6
Acyp2 (Acylphosphatase 2): #1 3.48e6
eIF3j (eukaryotic translation initiation factor 3 subunit j): #1 3.42e6
Cpr49Ag (Cuticular protein 49Ag): #1 3.46e6
CG42663: #1 3.64e6; #2 3.59e6
CG18011: #1 3.56e6; #2 3.61e6
dpr14 (defective proboscis extension response 14): #1 3.65e6
CG10298: #1 3.51e6
Nop17l (Nop17 like): #1 3.72e6
w (white): #1 3.58e6; #2 3.45e6
CG9646: #1 3.47e6
CycG (Cyclin G): #1 3.45e6; #2 3.06e6
MED7 (Mediator complex subunit 7): #1 2.91e6
CG17764: #1 3.27e6; #2 3.25e6
CG9861: #1 3.69e6
CG13285: #1 3.57e6
EndoGI (Endonuclease G inhibitor): #1 3.44e6
CG2211: #1 3.54e6
